Hit rate of the full screen: of about 53,000 sequences, about 3,700 (7%) were called active.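 The calls were made as follows: active = gene knockdowns whose robust z-score for IL-1 alpha signal is at least 2 or at most -2, so actives lie on both sides; inactive = the rest.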 This is one part of the list.

This assay can be described thus: Components of the Cytosolic LPS Sensing Pathway: Gene Identification via Genome-wide siRNA Screen.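 Also: robust z of the log signal after scaling to non-targeting control siRNA wells of the plate.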 The settings on record: RAW264.7 macrophages, IL-1a HTRF, actives lie on both sides, screened at 100 nM (by protocol), cells primed 5 h with Pam3CSK4 first. In a few lines: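 Knockdown: 100 nM siRNA, 48h, RAW264.7. Stimulation: Pam3CSK4 5 h, then LipidA via TransIT-TKO 24 h. Output: supernatant IL-1a HTRF, negative-control-normalized, log robust z-score; viability by CellTiter-Glo.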
On the technique in general: In TR-FRET formats the signal depends on donor and acceptor labels being close together.
Consider GGCGGAUGGACUAAUUUACTT against Zap70, for which the z-score is inactive: 0.456. For GGUGCACUGCCAAUUAUCUTT against Btbd11 the value was inactive: 0.18. The value for CCACUUGUUAGGUUGCUGCTT against Neurog1 was inactive: -0.0278; that for GGAACUGAUGAUCCUCAUGTT against Ube2c was inactive: -0.852. For CCAUUGCAUUACCGGUACCTT against Kcna6 the value was inactive: 1.43. Consider GCUGAAUACAGUUGGUGCUTT against Nelfa, for which the z-score was inactive: -0.259. Take CCCAAGGACUAUGAAGUUGTT against Col1a2: the z-score was inactive: -1.62.

Regarding GCUCUCACACCCUUAUGUATT against Nptn, the z-score is inactive: -1.45. For GGCUUUGACCCGAAAAGAATT against Tut4 the value was inactive: -0.0161; for GGUGACACUCAAGGUGUCATT against Ldlrap1, active: 2.23; for CGAGAAUUCCUUGCUCUAATT against Mgat4a, inactive: 0.194. The value for GCCUGUGGUGACAAGCAGATT against Insc was inactive: 0.6. As to GGAAAGUUUACACUAAAAGTT against Klf6, the z-score is inactive: 0.508. For the sequence GGAUUAUCCUCUUUGACACTT against Kremen1, the z-score was inactive: 0.0285. For GGUGCUAAAAACUCAAGUCTT against Dynlt1b, the z-score was inactive: 0.0983. The value for GGAGGUGUCAGAACACUGUTT against Csf1 was inactive: 0.518.

Consider GGUAUUAUGAGACAGGAAGTT against Pax5, for which the z-score was inactive: -1.61. For GCAUCAUCGUUUUUGGAAATT against Slc35e2, the z-score was inactive: -0.822. The value for GGGCAUUUCCCAAAACAUATT against Elovl2 was inactive: 0.391.

For the sequence GGGCAGUCCGUUUCUUAACTT against Kptn, the z-score is inactive: 0.815. The value for GGUAUAGCAAUUUCUACAATT against Chrna2 was inactive: -0.174. Take GGAUGCAUUGCUGCUGUGGTT against Sptbn1: the z-score is inactive: 0.326. The value for GGUCUUGUAUGCUAACUGGTT against Fubp1 was inactive: 1.55. For GGACUACUCGGCCAUCAUUTT against Map3k6 the value was inactive: -1.22; for GGGCCAUCUCUCAAUUAUGTT against Gga2, inactive: 1.93. For CGGUUCAGCUGUCAUUGAUTT against Slc2a13 the value was inactive: 0.82; for GGCUUGUCAGAAUUCUUCUTT against Ccdc178, inactive: 0.234; for GGUAAAAGCUACCAUUCAGTT against Ap2a2, inactive: -0.947.

Take GCUUAUUGAAUCCCUCUUATT against Tchhl1: the z-score was inactive: 0.26. With GAGUCCCUUGGCAGCUCAUTT against Klra8, the z-score is inactive: -0.0989. For GGUUUAGUGAAAAACUGCUTT against Hmga2 the value was inactive: 1.16; for GGUAGAAACUGACCACAUATT against Aifm1, inactive: 0.917. For GGAACAUAUACUGGACAGATT against Zfp825 the value was inactive: 0.436; for GGUUUUUUGAGCAUGGGUUTT against Alk, inactive: -0.76. For the sequence GGCAUGAUAAAGAAUGUCATT against Ppbp, the z-score is inactive: -1.95. The value for GGAAAUGAAGAAAAGUGACTT against Stk32a was inactive: -0.0588; that for GGAGGUACCACGAAUCCUUTT against Gm609 was inactive: -0.64. For CGGUUCAACACAACAACACTT against Cntnap5b the value was inactive: 0.421; for GGUGUGAGCUAUGUGUACATT against Vmn1r62, inactive: 0.584. Turning to GGGAAAGGAUUCAAUUAAGTT against Lratd2, the z-score is inactive: 0.0415.

Turning to GGACCAUGCUCCCUACUUATT against Prss37, the z-score was inactive: 0.386.

For CGAUCUACAAGGACACCGATT against Taf1c, the z-score was inactive: -0.565. For GGAAAUCAGAGCUGAGUUATT against Ankrd6 the value was inactive: 0.0763; for GGAGAUAUGGCCAUCACUCTT against Toe1, inactive: 1.11; for CCAAGAAGAUUAGAGACAGTT against Olfr591, inactive: 1.25. For GGUUUGGAAUCAAAACAAGTT against Caap1, the z-score is inactive: -0.147. The value for GCAGAAACGAUUGUACCAUTT against Ar was inactive: 1.37; that for GGAGGGAGUAUCCAUGUCATT against Nr2c2 was inactive: 0.209. As to GGAAAGUCAGCCUUUAGCATT against Prdx3, the z-score was inactive: -0.589. GGAUGAAGAUGUGGAUCUGTT against Dcaf11: the z-score was inactive: 0.949.

CCCUCCAGCACUUGUUACATT against Palb2: the z-score was inactive: -0.414. For GCACUUCCACGUGUGGAUUTT against Olfr648 the value was inactive: 0.291. The value for GCUGUGUGAAUACCACUUUTT against Cd2bp2 was inactive: 0.539; that for CGAAGGGACCGAAGAAUCCTT against Vcpip1 was inactive: -0.86; that for GGCUUUGAGAUAUGAACAGTT against Arrdc2 was active: 2.53.

As for GGGACUGCAUACUUAAGUUTT against Amacr, the z-score is inactive: 1.31. With GGAUGGCUUGUUUGGACAGTT against Ptprn, the z-score is inactive: 1.34.

Consider GCGAGAGCUUCUGUGAAAATT against Rnase13, for which the z-score was inactive: -0.958. For GGUUAAGAAUAACGAAAGGTT against Pdx1, the z-score is inactive: -1.15. Turning to GGAUCAACUUUGACAAAUATT against Rpl27a, the z-score was inactive: 0.213. For GCUUGCACAAGAUGCUAUATT against Bmt2 the value was inactive: 0.742. With CGAACGGAAAAAUGGAAGUTT against Mrtfb, the z-score is inactive: 0.784.

Consider GGUUCUUACAGCUAUAGAATT against Spo11, for which the z-score was inactive: 0.954. Consider GCAGUUUGGGAGCCCAAUATT against Slc16a13, for which the z-score is inactive: -0.516. GGACUUUGUUGUAAAGCACTT against Asgr2: the z-score is inactive: -0.826. The value for GCCAGUAUGCUGUAUGGCUTT against Bcas3 was inactive: -0.712; that for GGUCAAAGAUGCUAUAAAATT against Olfr993 was inactive: -0.843; that for GCGGGUAUGAUGGUACCUUTT against Pomt2 was inactive: 1.39.

On to GGCCAGUCGGAAAAUCUUATT against Atp7b, for which the z-score was inactive: 0.753. The value for GGAAAAUGAGAUCAUGCCCTT against Sdf4 was inactive: -0.488; that for GGAAGUCCUGCCAUUUAUATT against Ranbp2 was inactive: -1.51; that for GGCCUUCACGUCUGGAAAUTT against Cnot10 was inactive: -0.163. CGAAAAGGUGUGGCCAUCATT against Eif4a3: the z-score was inactive: -0.664. The value for GGAAAUCCAACAGCAGAUCTT against Rnf167 was inactive: -0.825; that for GGGCCUUUUUGAGUACGACTT against Cryaa was inactive: 0.904; that for GGUUUGUCUCCAUUCUUAUTT against Pnp was inactive: -0.675. As for GGAAAAAGAGAAUUCGAUATT against Wee1, the z-score is inactive: -1.2. For GGCUGUCAUCCAAGAACUUTT against Mtcp1 the value was inactive: 0.176; for GGAUUUGGCUAUAAGGGUUTT against Ppia, inactive: 1.39; for GGUCUUGGCUGAUUUUAUGTT against Cyp24a1, inactive: 0.669. Turning to GGCAUUAAAGUACAGCAUGTT against Immt, the z-score is inactive: 0.502.

Regarding GGGCUUUCCCAGUUCCUAATT against Bmp6, the z-score was active: 2.04. For “GCUGCCACUGGACACAUAATT against 4930591A17Rik” the value was inactive: -0.0198; for GGUAGACUGGUCAGAUACATT against Rexo4, inactive: -1.49. The value for GGCAGUGAUGUUUCUCUCGTT against Tmem198b was inactive: 0.152; that for GGUAUGAAUCUGGAGAUCATT against Por was inactive: 0.467.

Turning to GCUAGCAAUUAAAAGAUCGTT against Ppp2r2c, the z-score was inactive: 0.172. For GAGACCUUCACAAAGUUGUTT against Hnrnpll the value was inactive: 0.599; for CGAUGUGACUGGUUUAAGGTT against Wtap, inactive: -1.02; for GGACUAAUUGGCCUCUGCUTT against Rpl22l1, inactive: 0.638. Regarding CCUAGAAGUCAUUAAGACGTT against Slc25a33, the z-score was inactive: -0.514. The value for CCAAAUGUAGCGGAACUGATT against Rsu1 was inactive: 0.195; that for GGAUUGUUUAUCUGUCUUCTT against Cyp3a44 was inactive: -1.05; that for GGUACACCUUCCUUCCCUUTT against Mogs was inactive: -1.96. Consider GGAAACAGAACCAAGUUAATT against Thyn1, for which the z-score is inactive: 0.931. For the sequence GGAGGUGACUAUCAUUUUUTT against Gng4, the z-score was inactive: -0.498. The value for CGGGAUUCUUCUCCUUGAATT against Dnal4 was inactive: 0.428.

Consider CGUGUAGUGAAAAAUCUUGTT against Sertm1, for which the z-score was inactive: 1.22. Take “CCUAAUGAUGAGAUUAAUGTT against 1810024B03Rik”: the z-score is inactive: 0.541. For GGACAUCCAGACAAUGAGGTT against Fam13b the value was inactive: -1.62; for GGACUCUUUUGGACCUAAGTT against Hilpda, inactive: -1.24; for GGUGGCUAUUAAAAGUAUUTT against Ulk2, inactive: 0.581. In the case of GGUGAAAAGAGAUUUGAAUTT against Sp4, the z-score is inactive: 0.587. With CCUAAAAGGGUUUUGCUUCTT against Macroh2a2, the z-score was inactive: 0.291. As to GGAGCAGAAAGAAAUUUCCTT against Gpa33, the z-score is inactive: 0.48. For CCUUAAUACAACUUGUCCCTT against Dennd4b the value was inactive: -0.0332; for CCAUAUGUGAGACAACACATT against Tas2r136, inactive: -1.87.

Source of the values: PubChem BioAssay AID1508600 (Functional Genomics Laboratory (NCATS/FGL), 2020).
